# Results from the supplement of paper PMC5949888.
# Most values lie at the floor of the assay. Slopes are relative: functional sequences can read slightly below zero.
# Test system: Saccharomyces cerevisiae PS128 hsf1 delta, HSF1(1-493) fusion
# Assay: growth estimate (transactivation domain function in HSF1 fusion, heat-shock survival) (a.u. (slope of normalised read count over time)); higher = stronger growth at 37°C, i.e. more transactivation activity
# Details: library: random library
row,Substance,growth estimate
1,RVSLFFTLFALNSEWDCFRL,< -0.25
2,RVSTVTGPRKPRAFRKVK,< -0.25
3,RVSVFLPAPEFMVRQAPTEE,< -0.25
4,RVTGIFLTT,< -0.25
5,RVTKGRRLTTTTPRLFMVDR,< -0.25
6,RVTVSANLATPAHSLRKGWR,< -0.25
7,RVVEQHERT,< -0.25
8,RVVGTGDAPVGRSHRAGECY,< -0.25
9,RVVMTGFFSACGESQLQMPG,< -0.25
10,RVVSDANCRLRIRHGRNRGP,< -0.25
11,RVWLQRQFACPQAQVCSVNL,< -0.25
12,RVYCLL,< -0.25
13,RVYHRLEIGYDAPQNIHPWS,< -0.25
14,RVYRYNPTVERVSESPVR,< -0.25
15,RWCGWLFWSPSNS,< -0.25
16,RWEA,< -0.25
17,RWGETLFDWPNRVILRPDPF,-0.157
18,RWGFAPRAWRAGSAIDIITS,< -0.25
19,RWGSPAGRVTTPDSNDALTQ,< -0.25
20,RWHSG,< -0.25
21,RWID,< -0.25
22,RWIGTILSVCSYRPALGTMH,< -0.25
23,RWIIA,< -0.25
24,RWLCLARTPTG,< -0.25
25,RWLRFFSRALSPD,< -0.25
26,RWQSGQIEGRPVGCNVLCHI,< -0.25

# Some of the entries so far, bar-delimited:
row | Substance | growth estimate
1 | RVSLFFTLFALNSEWDCFRL | < -0.25
6 | RVTVSANLATPAHSLRKGWR | < -0.25
19 | RWGSPAGRVTTPDSNDALTQ | < -0.25

# Following part:

row,Substance,growth estimate
1,RWRNYYEGSTKHPVNFPDGI,< -0.25
2,RWRSYVGCHDSTRGLIKKSV,< -0.25
3,RWS,< -0.25
4,RWSFRCPKHEQISTASGSG,< -0.25
5,RWSVLVSVTCCEVKGTYPIY,< -0.25
6,RWTICHSRYSEPAQRVGLTA,< -0.25
7,RWV,< -0.25
8,RWVFTQLL,-0.245
9,RWVI,< -0.25
10,RWVSAAAVIMEMVYKYRGLA,< -0.25
11,RWW,< -0.25
12,RYAEELLLGTAGAKACITRL,< -0.25
13,RYERHQSQKRD,< -0.25
14,RYGLSVDPACPGSTCCFNSV,< -0.25
15,RYGVID,< -0.25
16,RYHPEAPWMIGRTGTVRGAR,< -0.25
17,RYIAISQNSFYQEDLCPALR,< -0.25
18,RYIALEE,< -0.25
19,RYIPS,< -0.25
20,RYITRSI,< -0.25
21,RYITWMTSRGRESTTVRMAT,< -0.25
22,RYIVDP,< -0.25
23,RYLDLLYLKGDSDIRARPSR,< -0.25
24,RYLFEDHGQREVHGFGTWRG,< -0.25
25,RYLRTV,< -0.25
26,RYMSWGVGS,< -0.25

row,Substance,growth estimate
1,RYPA,< -0.25
2,RYPGAI,< -0.25
3,RYPGLTVGMSG,< -0.25
4,RYPTGH,< -0.25
5,RYPVVRDHFFKR,< -0.25
6,RYRASNREFS,< -0.25
7,RYRIVHGGRTQASRKFGSGP,-0.0124
8,RYRQARFLSGNW,< -0.25
9,RYS,< -0.25
10,RYSAPAGEFNWSCYQREGT,-0.243
11,RYV,< -0.25
12,RYVG,< -0.25
13,RYVGTRKSS,< -0.25
14,RYVLNGGSHVPSVARNALAP,< -0.25
15,RYVRCRTVAPIGASSTLGMR,< -0.25
16,RYVRNQPRAKSAQQCFM,< -0.25
17,SAAERVRSGREEDADMPSSI,< -0.25
18,SAARSAFFEHLCRNALPLAL,< -0.25
19,SACNTSGGRLTALFGFLFVS,< -0.25
20,SADQAPGLECRCS,< -0.25
21,SADTGERLSKVYDTEGCPGA,< -0.25
22,SAEGSV,< -0.25
23,SAELCRRCFYYPTRKKSHAA,< -0.25
24,SAEWAQGGP,< -0.25
25,SAFEANCRVKTDWKIGYRTQ,< -0.25
26,SAGGASTAKYSFYLREVNSH,< -0.25

# Not a retest: entries from further up.
row,Substance,growth estimate
26,RWQSGQIEGRPVGCNVLCHI,< -0.25
1,RWRNYYEGSTKHPVNFPDGI,< -0.25
2,RWRSYVGCHDSTRGLIKKSV,< -0.25

# (continued)

row,Substance,growth estimate
1,SAGLIPGRDSSGGTTDWACW,< -0.25
2,SAGPNEKCLHNSALEPG,< -0.25
3,SAGVTAVLTVSMPRNDRPHS,< -0.25
4,SAGYGEYSRCGG,< -0.25
5,SAHRKRPLVGKGLSTKYKGP,< -0.25
6,SAHV,< -0.25
7,SAHVYAA,< -0.25
8,SAINVCWLCVSVKRPEALIR,< -0.25
9,SAIPQVGAVMQH,< -0.25
10,SAKVSGVPLKIIFSGHEIRG,< -0.25
11,SALACDIKNFN,< -0.25
12,SALHECMPGAVQVCAETSRA,< -0.25
13,SALLLPLNAYRALVRPGNAK,< -0.25
14,SALRPT,< -0.25
15,SANY,< -0.25
16,SAPAGLLSIRKSQNGILQST,< -0.25
17,SAPG,< -0.25
18,SAPLRCLLSAESTLDWTRQS,< -0.25
19,SAQCDPSVNDQTGRV,< -0.25
20,SAQGIRGSVVWRIAVRHSLA,< -0.25
21,SAR,< -0.25
22,SARGGNAFRLRSYLLR,< -0.25
23,SARITRCRTVSERIALTNPR,< -0.25
24,SARKKLYLPGNNGVFTRYAS,< -0.25
25,SARQS,< -0.25
26,SARTLR,< -0.25

row,Substance,growth estimate
1,SASASDECHAYCRRLSAWLC,< -0.25
2,SATGIVWQMKKEFHGANRGS,< -0.25
3,SATGSP,< -0.25
4,SATIRVLWTTPWASSWEGGA,< -0.25
5,SATRSSDAMRVHRAFAI,< -0.25
6,SATTRRS,< -0.25
7,SATTYLW,< -0.25
8,SATVGLRKADASRGLEW,< -0.25
9,SAVKRTDVSVSAVVHRISTH,< -0.25
10,SAVLL,< -0.25
11,SAVNGGSRTAANHKGH,< -0.25
12,SAVQEG,< -0.25
13,SAVTFEKVISYSQKAQETYY,-0.245
14,SAWGASSAGWSHLRR,< -0.25
15,SAWLEDFGRCFTQSA,< -0.25
16,SAWYPTPGARF,-0.239
17,SAYGDYVLCLIRLIEGAVGW,< -0.25
18,SCASGAALVLAGPAIYSWLG,< -0.25
19,SCAYDCSSSYLPRELP,< -0.25
20,SCCGS,< -0.25
21,SCCL,< -0.25
22,SCCNPRDRWERH,< -0.25
23,SCDL,< -0.25
24,SCEETRL,< -0.25
25,SCEPHQNVYPVNWSPMLNAM,< -0.25
26,SCESEGTLMGLHAQDAGPVA,< -0.25

row,Substance,growth estimate
1,SCESFFGVQGGTRPTGPLCV,< -0.25
2,SCGGHWITETFRFRRTCSGG,< -0.25
3,SCGRTQGRSHLL,< -0.25
4,SCGSVG,< -0.25
5,SCHETDWYHPNR,-0.246
6,SCISDLVWHSVITVCLRLTR,< -0.25
7,SCITSTVGYAKPEGERRAR,< -0.25
8,SCITYPVSLTM,< -0.25
9,SCKACLADDWPFVLTLSLRR,< -0.25
10,SCKRLNP,< -0.25
11,SCMWLRTIVGSCQGI,< -0.25
12,SCNASKHSLKNPVENATRTP,< -0.25
13,SCNDYPSLGSRRKFAHSDAP,< -0.25
14,SCNTIYIDYAVMES,-0.248
15,SCPASRG,< -0.25
16,SCQDLCLRHTSHETGPRTMN,< -0.25
17,SCQPFPSQIVRDRDHQGVRD,< -0.25
18,SCQPIYQHLESHTRC,< -0.25
19,SCQYS,< -0.25
20,SCR,< -0.25
21,SCRVRNQGHG,< -0.25
22,SCSEVYMEISRRY,< -0.25
23,SCSRRCDPVDKGARRLPARK,< -0.25
24,SCV,< -0.25
25,SCVTGSNFPYSSRVGLHTSF,-0.246
26,SCVVGSILRQWSKRVPGLPG,< -0.25

row,Substance,growth estimate
1,SCVY,< -0.25
2,SCWLMCCSIRGGHAEHAKQQ,< -0.25
3,SCWRGIRHRALFWFKYTASP,< -0.25
4,SCYLIVVSPIAAAPSLRIEG,-0.24
5,SDACVAICRLRRKMVPANGA,-0.23
6,SDCVANFRSRK,< -0.25
7,SDDGCSSVFQCHSFCRTWRV,< -0.25
8,SDDRKDSRCEQLRFRVRVHL,< -0.25
9,SDEFDRAS,< -0.25
10,SDEWRPDRCSSCNKAISAHT,< -0.25
11,SDFLDNLRR,< -0.25
12,SDG,< -0.25
13,SDGLRFQLRSELGADSACSE,< -0.25
14,SDGSSTISTWTGAPLGPTQG,< -0.25
15,SDIPELMHDRSYPRMGPSLG,< -0.25
16,SDIRSSRSIEMCDES,< -0.25
17,SDKNYLLADELDTSLYGVQG,< -0.25
18,SDLDLADKDRIAL,< -0.25
19,SDLK,< -0.25
20,SDLRVLVLLGCFTTRSQTDG,< -0.25
21,SDMT,< -0.25
22,SDPDRRKGRESTALERPIIP,< -0.25
23,SDQ,< -0.25
24,SDRFT,< -0.25
25,SDRG,< -0.25
26,SDRTARASSVTHPPNILLCF,< -0.25

# An excerpt of these results, as tab-separated lines:
row	Substance	growth estimate
8	SDDRKDSRCEQLRFRVRVHL	< -0.25
9	SDEFDRAS	< -0.25
11	SDFLDNLRR	< -0.25
14	SDGSSTISTWTGAPLGPTQG	< -0.25
20	SDLRVLVLLGCFTTRSQTDG	< -0.25

# (continued)

row,Substance,growth estimate
1,SDVKVSQATQVRR,< -0.25
2,SDVSVVPTLAQLG,< -0.25
3,SDVTLRDSSCQDMRAGGPNI,< -0.25
4,SDVTMPGIVHGHSRRTG,< -0.25
5,SDWSICFSVGWDVPMGCVEN,< -0.25
6,SDWTTCSTRGNLGVGTA,< -0.25
7,SDY,< -0.25
8,SEATFPQRIKCRTLFTAVRS,< -0.25
9,SEC,< -0.25
10,SEDGLRRDSDGRQWAVYNHN,< -0.25
11,SEERVWDMGESKTVLLWFQP,< -0.25
12,SEFEETDM,< -0.25
13,SEFQTSHKLDSVRLRH,< -0.25
14,SEFRAGRGCMSAHFPLATRG,-0.221
15,SEGFRTSPFTGQLRPWVCRR,< -0.25
16,SEGGLGRWVGSITVVDGVTG,< -0.25
17,SEGGSEV,< -0.25
18,SEGPRRNLEIQMSSQAR,< -0.25
19,SEGQLLSRSGITRV,< -0.25
20,SEGVCLSGFTK,< -0.25
